In PubChem BioAssay AID248 (DTP/NCI, 2004):
The list shows only some results of the screen, not a fair sample: it gathers tests that were run many times, whatever their T/C, doses with no T/C, and many T/C values between a quarter and a half above the control. Other doses and runs of a compound stand elsewhere. T/C is the treated group as % of the vehicle group. Some doses have a count of surviving animals in place of a T/C: the source holds a T/C of zero for them, seemingly a mark for toxic or unscored doses. Some doses without a T/C left all or most animals alive at the check, yet need not have been tolerated: survival well below the control is almost never listed, so the zero probably covers shortened survival too. Survivors were counted at the toxicity check, usually on the fifth day, unless a day is given; later deaths do not show. Schedules are NCI's codes, taken here to give the interval after Q, in days (D) or hours (H), and the number of doses after X. Some entries were tested several times; the results are listed from low to high. Where survival is the endpoint, this PubChem deposit counts one and a half times the control or more as active, and values a quarter to a half above the control carry no call in these data; other NCI protocols may use other cut-offs. Some T/C values are followed by the survivors on the day toxicity was checked, most often the fifth; where none is given, no animal had died by that day.

Test system: L1210 leukemia ip in BDF1 mice, survival T/C
Assay: NCI In Vivo Anticancer Drug Screen. Data for tumor model L1210 Leukemia (intraperitoneal) in B6D2F1 (BDF1) mice
Settings: T/C endpoint: mean survival time, higher T/C = longer survival
[1] = dose: 512.0 mg/kg/injection, schedule: Q01DX001 (ip), vehicle: saline
[2] = dose: 100.0 mg/kg/injection, schedule: Q04DX003 (ip), vehicle: saline
[3] = dose: 200.0 mg/kg/injection, schedule: Q04DX003 (ip), vehicle: saline
[4] = dose: 400.0 mg/kg/injection, schedule: Q04DX003 (ip), vehicle: saline
[5] = dose: 200.0 mg/kg/injection, schedule: Q04DX003 (ip), vehicle: Klucel (hydroxypropylcellulose) (HPC)
[6] = dose: 400.0 mg/kg/injection, schedule: Q01DX009 (ip), vehicle: saline
[7] = dose: 300.0 mg/kg/injection, schedule: Q01DX001 (ip), vehicle: saline

In the case of `O=C(NP(=O)(N1CC1)N1CC1)c1cc(I)ccc1I`, the T/C (dose: 1.0 mg/kg/injection, schedule: Q01DX009 (ip), vehicle: saline) is reported as 137 % of control, the T/C (dose: 2.0 mg/kg/injection, schedule: Q04DX003 (ip), vehicle: saline with Tween-80) is reported as 125 % of control and the T/C (dose: 4.0 mg/kg/injection, schedule: Q04DX003 (ip), vehicle: saline) is reported as 127 % of control. For the same molecule, the T/C (dose: 8.0 mg/kg/injection, schedule: Q04DX003 (ip), vehicle: saline) was 137 % of control, the T/C (dose: 16.0 mg/kg/injection, schedule: Q01DX009 (ip), vehicle: saline with Tween-80) was 133 % of control and the T/C (dose: 16.0 mg/kg/injection, schedule: Q04DX003 (ip), vehicle: saline with Tween-80) was 125 % of control. The T/C (dose: 16.0 mg/kg/injection, schedule: Q04DX003 (ip), vehicle: saline) was 133 % of control, the T/C (dose: 32.0 mg/kg/injection, schedule: Q01DX009 (ip), vehicle: saline) was 135 % of control and the T/C (dose: 32.0 mg/kg/injection, schedule: Q04DX003 (ip), vehicle: saline with Tween-80) was 147 % of control [9 of 10 alive]. The T/C (dose: 64.0 mg/kg/injection, schedule: Q01DX009 (ip), vehicle: saline) was 143 % of control, the T/C (dose: 64.0 mg/kg/injection, schedule: Q04DX003 (ip), vehicle: saline with Tween-80) was 141 % of control and the T/C (dose: 64.0 mg/kg/injection, schedule: Q04DX003 (ip), vehicle: saline, evaluated on day 30) was 142 % of control. For the same molecule, the T/C (dose: 64.0 mg/kg/injection, schedule: Q04DX003 (ip), vehicle: saline, evaluated on day 60) was 126 % of control, the T/C (dose: 128.0 mg/kg/injection, schedule: Q01DX001 (ip), vehicle: saline) was 131 % of control and the survivor count (dose: 128.0 mg/kg/injection, schedule: Q01DX009 (ip), vehicle: saline with Tween-80) was 10 of 10. The T/C (dose: 128.0 mg/kg/injection, schedule: Q01DX009 (ip), vehicle: saline) was 127 % of control, the T/C (dose: 256.0 mg/kg/injection, schedule: Q01DX001 (ip), vehicle: saline with Tween-80) was 147 % of control [9 of 10 alive] and the T/C (dose: 256.0 mg/kg/injection, schedule: Q01DX001 (ip), vehicle: saline) was 134 % of control. The T/C (dose: 256.0 mg/kg/injection, schedule: Q01DX001 (oral), vehicle: saline with Tween-80) was 127 % of control [7 of 10 alive], the survivor count (dose: 256.0 mg/kg/injection, schedule: Q01DX009 (ip), vehicle: saline with Tween-80) was 6 of 10 and the survivor count (dose: 256.0 mg/kg/injection, schedule: Q01DX009 (ip), vehicle: saline) was 10 of 10 and 6 of 6. The T/C [1] was 149 % of control, the survivor count [1] was 8 of 10 and the T/C (dose: 512.0 mg/kg/injection, schedule: Q01DX001 (oral), vehicle: saline with Tween-80) was 133 % of control [9 of 10 alive]. For the same molecule, the survivor count (dose: 512.0 mg/kg/injection, schedule: Q01DX009 (ip), vehicle: saline with Tween-80) was 4 of 10, the survivor count (dose: 512.0 mg/kg/injection, schedule: Q01DX009 (ip), vehicle: saline) was 10 of 10 and 6 of 6 and the survivor count (dose: 512.0 mg/kg/injection, schedule: Q04DX003 (ip), vehicle: saline with Tween-80) was 9 of 10. For the same molecule, the T/C (dose: 512.0 mg/kg/injection, schedule: Q04DX003 (ip), vehicle: saline) was 132 % of control.

`CC(=O)NC1=C(N2CCNCC2)C(=O)c2ccccc2C1=O` was tested, and the survivor count (dose: 100.0 mg/kg/injection, schedule: Q04DX003 (ip), vehicle: saline with Tween-80) was 2 of 6, the survivor count (dose: 200.0 mg/kg/injection, schedule: Q04DX003 (ip), vehicle: saline with Tween-80) was 0 of 6 and the survivor count (dose: 400.0 mg/kg/injection, schedule: Q04DX003 (ip), vehicle: saline with Tween-80) was 0 of 6.

`CCCC[n+]1ccccc1Cc1ccccc1` was tested, and the survivor count (dose: 25.0 mg/kg/injection, schedule: Q04DX003 (ip), vehicle: saline) was 3 of 3, the survivor count [2] was 0 of 3 and the survivor count [3] was 0 of 3. For the same molecule, the survivor count [4] was 0 of 3.

For `COC(=O)c1cncn1C(C)c1cccc2ccccc12` (stereo not given), the survivor count [5] was 3 of 6 and the survivor count (dose: 400.0 mg/kg/injection, schedule: Q04DX003 (ip), vehicle: Klucel (hydroxypropylcellulose) (HPC)) was 1 of 6.

For `O=C(O)COc1ccc(Cl)cc1Cl`, the survivor count [6] was 3 of 6.

In the case of `CCCCCCCCCCCCCCC[n+]1ccc(C#N)cc1`, the survivor count (dose: 20.0 mg/kg/injection, schedule: Q01DX009 (ip), vehicle: acetone) is reported as 4 of 6, the survivor count (dose: 75.0 mg/kg/injection, schedule: Q01DX001 (ip), vehicle: saline) is reported as 1 of 6 and the survivor count (dose: 150.0 mg/kg/injection, schedule: Q01DX001 (ip), vehicle: saline) is reported as 0 of 6. For the same molecule, the survivor count [7] was 0 of 6.

With `Brc1ccc2c(c1)/C(=C/c1ccccc1)c1ccccc1-2` the survivor count (dose: 100.0 mg/kg/injection, schedule: Q04DX002 (ip), vehicle: DMSO) was 3 of 3.

In the case of `Cc1cccc(Cl)c1OCC(=O)Nc1ccccc1`, the survivor count (dose: 400.0 mg/kg/injection, schedule: Q04DX002 (ip), vehicle: saline with Tween-80) is reported as 1 of 3.

`C1=C(c2ccccc2)NN=C(c2ccccc2)C1c1ccccc1` (stereo not given) was tested, and the survivor count (dose: 100.0 mg/kg/injection, schedule: Q01DX001 (ip), vehicle: saline with Tween-80) was 6 of 6, the survivor count (dose: 200.0 mg/kg/injection, schedule: Q01DX001 (ip), vehicle: saline with Tween-80) was 6 of 6 and the survivor count (dose: 400.0 mg/kg/injection, schedule: Q01DX001 (ip), vehicle: saline with Tween-80) was 6 of 6.

For `COC(=O)c1cn2c(c1C(=O)OC)CCC2`, the survivor count (dose: 300.0 mg/kg/injection, schedule: Q01DX009 (ip), vehicle: other) was 3 of 6.

For `NC1=NC(=O)/C(=C/c2ccccc2)S1`, the survivor count (dose: 400.0 mg/kg/injection, schedule: Q01DX009 (ip), vehicle: saline with Tween-80) was 6 of 6.

For `CCN(C(=O)CCl)C(C)(C)C(SSSC(c1ccc(Cl)cc1)C(C)(C)N(CC)C(=O)CCl)c1ccc(Cl)cc1` (stereo not given), the survivor count [4] was 0 of 6.

`O=C(OCCCl)C1C2CCC(O2)C1C(=O)OCCCl` (stereo not given) was tested, and the T/C (dose: 3.12 mg/kg/injection, schedule: Q04DX002 (ip), vehicle: Klucel (hydroxypropylcellulose) (HPC)) was 127 % of control, the survivor count (dose: 6.25 mg/kg/injection, schedule: Q04DX002 (ip), vehicle: Klucel (hydroxypropylcellulose) (HPC)) was 0 of 3 and the survivor count (dose: 12.5 mg/kg/injection, schedule: Q04DX002 (ip), vehicle: Klucel (hydroxypropylcellulose) (HPC)) was 0 of 3. For the same molecule, the survivor count (dose: 25.0 mg/kg/injection, schedule: Q04DX002 (ip), vehicle: Klucel (hydroxypropylcellulose) (HPC)) was 0 of 3, the survivor count (dose: 50.0 mg/kg/injection, schedule: Q04DX002 (ip), vehicle: Klucel (hydroxypropylcellulose) (HPC)) was 0 of 3 and the survivor count (dose: 100.0 mg/kg/injection, schedule: Q04DX002 (ip), vehicle: Klucel (hydroxypropylcellulose) (HPC)) was 0 of 3. The survivor count (dose: 200.0 mg/kg/injection, schedule: Q04DX002 (ip), vehicle: Klucel (hydroxypropylcellulose) (HPC)) was 0 of 3 and the survivor count (dose: 400.0 mg/kg/injection, schedule: Q04DX002 (ip), vehicle: Klucel (hydroxypropylcellulose) (HPC)) was 0 of 3.

`CCOC(=O)c1c(N)sc2c1CCC2` was tested, and the survivor count [6] was 1 of 6.

For `COc1ccc2c(O)c(Oc3ccccc3)c(=O)oc2c1`, the survivor count [4] was 1 of 3.

`CCS(=O)(=O)c1ncc2cnccn12` was tested, and the survivor count (dose: 400.0 mg/kg/injection, schedule: Q01DX009 (ip), vehicle: water) was 0 of 6 and the survivor count (dose: 400.0 mg/kg/injection, schedule: Q04DX003 (ip), vehicle: water) was 2 of 6.

In the case of `CN(C)c1ccc(C(=C2C=CC(=[N+](C)C)C=C2)c2ccccc2Cl)cc1`, the survivor count (dose: 200.0 mg/kg/injection, schedule: Q01DX001 (ip), vehicle: saline) is reported as 0 of 4 and the survivor count (dose: 400.0 mg/kg/injection, schedule: Q01DX001 (ip), vehicle: saline) is reported as 0 of 4.

For `CC/C=C(\C)C1(CCC)C(=O)NC(=O)NC1=O`, the survivor count [7] was 2 of 6.

`CN(C)/N=N/c1nc(Cc2ccccc2)[nH]c1C(N)=O` was tested, and the T/C (dose: 400.0 mg/kg/injection, schedule: Q01DX009 (ip), vehicle: Klucel (hydroxypropylcellulose) (HPC)) was 141 % of control.

With `CC1C[N+](C)=C2CCCCC2=C1N` (stereo not given) the survivor count [2] was 0 of 6, the survivor count [3] was 0 of 6 and the survivor count [4] was 0 of 6.

`COc1ccc(C=NCCN=Cc2ccc(OC)cc2)cc1` was tested, and the survivor count [5] was 6 of 6.
